From patent US20020061866A1, “Pharmaceutical compositions comprising in combination a bisphosphonate and a matrix metalloproteinase inhibitor” (priority 1999, published 2002)
At least one structure is not confirmed: it was looked up by name or label, or the drawing left a doubt.

Key:
[1] = test system: human myeloma cell lines (HMCL) LP-1, OPM-2 and JJN-3; assay: Detection of apoptosis in HMCL, APO 2.7 flow cytometry; format: cell-based; conditions: three HMCL, 1 to 5 days of culture
[2] = test system: LP-1 cells; assay: Analysis of cell cycle, propidium iodide flow cytometry; format: cell-based, human; conditions: LP-1, 5×10^−4 Mol/L, 4 day incubation
Procedure: LP-1 cells (2×10^5 cells) plated in a 24 well-plate are incubated in the presence of 5×10^−4 Mol/L of either pamidronate or zoledronate. A control without bisphosphonate is performed. Cells are recovered after a 4day incubation period and washed. They are then incubated for 40 minutes at 37° C. with a solution of Triton×100 0.1%, Sodium Citrate 0.1%, 5 IU of RNAse and stained with propidium iodide (PI) 50 mg/L: Flow cytometry analysis is performed on a FACSCalibur using a CELLQuest program (Becton Dickinson). Data are gated on the F12-Area venus FL2-Width cytogram to exclude doublets and agregates, and a minimum of 2.5×10^4 gated cells is collected per sample. Analysis of the cell cycle was performed using the Modfit LT for Mac V2.01 program (Verity Software House, Inc). Apoptotic cells were detected as a subdiploid peak as described by Zamai et al. (1993, Cytometry 14: 891-897)

[3] = test system: BMSC; assay: Survival experiments, BMSC apoptosis by APO 2.7 flow cytometry; format: cell-based, human; conditions: 1×10^−5 Mol/L, 3-day incubation
Procedure: (§1) BMSC are obtained from 7 patients with MM after long term culture of bone marrow samples. Bone marrow mononuclear cells are isolated by Ficoll-Hypaque density centrifugation. The cells are plated in DMEM supplemented with 10% FCS and allowed to attach for 3 days, after which the medium is renewed. After 2 to 3 weeks of culture, a confluent adherent cell monolayer is obtained and then, after two passages using trypsin/ETA solution, BMSC are recovered for study. Cells are maintained in DMEM supplemented with 10% FCS, 2 mmol/L glutamine, 100 μg/mL streptomycin, 100 U/mL penicillin, and 5. 10^−5 mol/L 2-β-mercaptoethanol.
Adherent BMSC (3×10^5 cells) are plated in 25 cm^2 flasks and are incubated with either pamidronate (APD) or zoledronate, at the following concentrations: 10^−4 and 10^−5 mol/L. A control without bisphosphonate is performed After a 3-day incubation period, cells are washed with PBS and removed from the flasks using trypsin-EDTA for 20 seconds. The percentage of apoptotic cells is determined by flow cytometry using APO 2.7 mAb (Immunotech, Marseilles, France) (ibid.).

[4] = test system: MMP-2 secretion by BMSC; assay: Determination of gelatinase A (MMP-2) levels by gelatin substrate gel zymography; format: cell-based, human; conditions: 10^−7 to 10^−9 mol/L, all patient samples
Procedure: as §1
Adherent BMSC (10^4 cells) plated in 96-well plates are preincubated for 24 hours with either pamidronate or zoledronate. Then the medium is replaced by a fresh one without FCS but in the presence of different concentrations (10^−6, 10^−7, 10^−8, 10^−9 Mol/L) of each bisphosphonate. After a 48-hour incubation period, the supernatants are collected and stored at −20° C. until analysis. MMP-2 production is shown by gelatin substrate gel zymography. […] The intensity of the gelatinolytic bands is analysed by densitometry. […]

| SMILES | induction of apoptosis in HMCL (APO 2.7 staining) [1] | modification of the phases of the cell cycle [2] | BMSC apoptosis [3] | MMP-2 upregulation [4] |
| --- | --- | --- | --- | --- |
| NCCC(O)(P(=O)(O)O)P(=O)(O)O [pamidronate, (3-amino-1-hydroxypropylidene) bis-phosphonate] | does not | no modification | neither pamidronate nor zoledronate is responsible for significant BMSC apoptosis | Weak |
| O=P(O)(O)C(O)(Cn1ccnc1)P(=O)(O)O [zoledronate, (1-hydroxy-2-(1H-imidazole-1-yl)ethylidene) bisphosphonate] | induces a strong dose- and time-dependent apoptosis | induces significant modifications in the cell cycle phases | neither pamidronate nor zoledronate is responsible for significant BMSC apoptosis |  |
